Data taken from the supplement of paper PMC10849652.
The other results are listed elsewhere or left out.

Protein sequences, listed by entry. Tags and fused reporters are not part of them. Lines headed by an entry give the natural chain unless they say otherwise; changes in a name come on top.
UniProt Q9BUN8: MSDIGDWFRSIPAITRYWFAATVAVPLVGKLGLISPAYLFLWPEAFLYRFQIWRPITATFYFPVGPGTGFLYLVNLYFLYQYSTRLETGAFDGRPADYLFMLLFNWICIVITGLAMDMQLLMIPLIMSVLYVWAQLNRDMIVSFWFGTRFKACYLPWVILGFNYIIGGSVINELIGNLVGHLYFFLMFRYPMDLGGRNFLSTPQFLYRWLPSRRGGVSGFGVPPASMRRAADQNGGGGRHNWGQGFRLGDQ
UniProt Q16698: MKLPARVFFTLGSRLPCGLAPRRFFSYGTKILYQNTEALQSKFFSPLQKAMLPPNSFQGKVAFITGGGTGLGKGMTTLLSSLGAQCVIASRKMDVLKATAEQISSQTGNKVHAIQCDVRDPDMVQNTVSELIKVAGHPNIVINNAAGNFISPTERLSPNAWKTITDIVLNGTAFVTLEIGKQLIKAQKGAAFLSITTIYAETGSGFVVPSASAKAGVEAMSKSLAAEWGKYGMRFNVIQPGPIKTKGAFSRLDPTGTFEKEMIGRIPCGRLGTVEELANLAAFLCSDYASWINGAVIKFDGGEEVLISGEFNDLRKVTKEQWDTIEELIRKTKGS
UniProt Q96GG9: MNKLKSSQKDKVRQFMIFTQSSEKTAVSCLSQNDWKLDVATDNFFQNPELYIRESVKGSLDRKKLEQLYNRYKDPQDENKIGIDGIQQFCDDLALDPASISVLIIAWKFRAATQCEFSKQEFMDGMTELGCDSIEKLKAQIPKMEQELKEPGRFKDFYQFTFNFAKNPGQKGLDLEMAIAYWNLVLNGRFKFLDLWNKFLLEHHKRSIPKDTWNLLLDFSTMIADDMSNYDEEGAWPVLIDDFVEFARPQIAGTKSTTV
UniProt Q8NA75: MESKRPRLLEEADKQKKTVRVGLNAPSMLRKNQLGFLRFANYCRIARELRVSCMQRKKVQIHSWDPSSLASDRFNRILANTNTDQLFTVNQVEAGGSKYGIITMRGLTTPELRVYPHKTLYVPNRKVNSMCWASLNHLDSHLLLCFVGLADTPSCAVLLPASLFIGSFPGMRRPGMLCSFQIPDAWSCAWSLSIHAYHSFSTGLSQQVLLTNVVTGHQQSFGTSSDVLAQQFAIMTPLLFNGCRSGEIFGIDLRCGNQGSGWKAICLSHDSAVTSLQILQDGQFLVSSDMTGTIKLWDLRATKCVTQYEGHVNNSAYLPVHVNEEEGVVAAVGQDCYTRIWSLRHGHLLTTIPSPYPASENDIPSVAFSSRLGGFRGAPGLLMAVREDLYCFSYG
UniProt Q86XP3: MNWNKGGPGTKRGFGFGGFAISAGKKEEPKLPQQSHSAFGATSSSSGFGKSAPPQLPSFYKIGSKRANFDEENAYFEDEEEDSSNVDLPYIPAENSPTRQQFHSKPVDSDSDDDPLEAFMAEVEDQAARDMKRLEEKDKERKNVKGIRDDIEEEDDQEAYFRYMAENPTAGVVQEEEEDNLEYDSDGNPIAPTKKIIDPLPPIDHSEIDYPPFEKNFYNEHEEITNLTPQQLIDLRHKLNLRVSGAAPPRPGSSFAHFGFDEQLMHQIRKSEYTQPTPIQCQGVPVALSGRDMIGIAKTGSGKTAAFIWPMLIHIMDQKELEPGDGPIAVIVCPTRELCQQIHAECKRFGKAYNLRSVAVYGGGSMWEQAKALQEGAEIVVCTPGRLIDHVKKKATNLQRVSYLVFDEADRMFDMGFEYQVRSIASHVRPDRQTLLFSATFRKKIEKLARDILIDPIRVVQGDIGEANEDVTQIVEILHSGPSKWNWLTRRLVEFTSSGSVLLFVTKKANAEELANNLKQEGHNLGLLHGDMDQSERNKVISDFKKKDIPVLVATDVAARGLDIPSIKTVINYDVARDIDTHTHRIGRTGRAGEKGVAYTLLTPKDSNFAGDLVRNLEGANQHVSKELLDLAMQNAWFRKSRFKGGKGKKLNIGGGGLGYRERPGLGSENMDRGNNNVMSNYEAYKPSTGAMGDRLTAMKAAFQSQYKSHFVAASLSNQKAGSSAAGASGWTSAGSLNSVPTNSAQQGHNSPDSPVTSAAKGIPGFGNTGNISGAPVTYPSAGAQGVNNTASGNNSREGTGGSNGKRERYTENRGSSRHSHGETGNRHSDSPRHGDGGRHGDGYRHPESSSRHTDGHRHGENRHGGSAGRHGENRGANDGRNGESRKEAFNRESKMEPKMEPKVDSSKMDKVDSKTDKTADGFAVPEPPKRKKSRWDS
UniProt Q9NUI1: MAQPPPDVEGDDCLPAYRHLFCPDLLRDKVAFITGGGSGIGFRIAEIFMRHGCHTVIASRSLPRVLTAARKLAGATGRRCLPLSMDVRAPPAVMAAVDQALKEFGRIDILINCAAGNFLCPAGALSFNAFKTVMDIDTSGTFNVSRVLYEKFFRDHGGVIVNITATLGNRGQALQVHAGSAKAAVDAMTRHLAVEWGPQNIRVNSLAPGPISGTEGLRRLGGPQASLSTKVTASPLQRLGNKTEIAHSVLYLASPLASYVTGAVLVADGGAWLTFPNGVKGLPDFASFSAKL
UniProt P17661, whole entry, looked up: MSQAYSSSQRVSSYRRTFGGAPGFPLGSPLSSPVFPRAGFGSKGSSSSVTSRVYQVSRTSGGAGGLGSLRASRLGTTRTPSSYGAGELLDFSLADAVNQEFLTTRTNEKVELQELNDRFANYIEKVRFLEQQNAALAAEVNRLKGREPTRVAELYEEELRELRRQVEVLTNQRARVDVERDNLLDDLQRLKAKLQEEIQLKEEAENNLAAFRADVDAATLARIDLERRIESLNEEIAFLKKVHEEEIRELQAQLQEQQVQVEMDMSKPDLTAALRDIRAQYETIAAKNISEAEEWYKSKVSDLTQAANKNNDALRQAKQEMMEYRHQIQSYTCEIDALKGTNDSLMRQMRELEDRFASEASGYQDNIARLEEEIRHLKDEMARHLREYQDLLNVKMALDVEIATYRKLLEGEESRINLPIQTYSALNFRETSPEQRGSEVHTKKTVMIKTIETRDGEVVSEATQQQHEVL
UniProt P07108: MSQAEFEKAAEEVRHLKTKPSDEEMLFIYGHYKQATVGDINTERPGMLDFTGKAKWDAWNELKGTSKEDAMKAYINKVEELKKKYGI

What was measured:
Test in all cases: log2 fold change, soluble protein after heating vs DMSO (PISA); higher = thermal stabilisation; K562 lysate, 10 uM; active = over 0.2 and 3.5 SD of the protein, either way, in both replicates (recomputed)
[1] = compound: CN1CC[C@H](c2c(O)cc(O)c3c(=O)cc(-c4ccccc4Cl)oc23)[C@H](O)C1 [alvocidib]
In short: (§1)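 K562 pellets were dounce-homogenised in PBS pH 7.4 containing 1 mM MgCl2, and the crude extract, at 1 mg/mL protein, was exposed to 10 μM compound for 30 min. Aliquots were heated for 3 min across 48°C-58°C, pooled, brought to 0.5% NP-40 at 4°C and spun at 21,000xg for 90 min, with the supernatant taken as soluble protein. TMTpro 16plex LC-MS/MS with equalised channel sums quantified that protein. Values are log-two fold changes in thermal stability relative to solvent controls, taken from duplicates.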

[2] = compound: CN1CCc2c(c3ccccc3n2Cc2ccc(C(=O)NO)cc2)C1 [Tubastatin A]
In short: as §1

[3] = compound: CNC(=O)C1=CC=CC=C1NC2=NC(=NC=C2Cl)NC3=C(C=C(C=C3)N4CCOCC4)OC
In short: as §1

[4] = compound: CNC(=O)c1ccc(Nc2ncc(C(F)(F)F)c(NCc3nccnc3N(C)S(C)(=O)=O)n2)cc1 [defactinib]
In short: as §1

[5] = compound: CNc1nc(-c2ccc3c(N)n[nH]c3c2)cc(N2C[C@@H](C(=O)NC3CCCCC3)CC[C@H]2C)n1
In short: as §1

[6] = compound: COC(=O)N[C@@H](C)CNc1nccc(-c2cn(C(C)C)nc2-c2cc(Cl)cc(NS(C)(=O)=O)c2F)n1 [encorafenib]
In short: as §1

[7] = compound: COC(=O)[C@H](CCSC)NC(=O)C1=C(C=C(C=C1)NC[C@H](CS)N)C2=CC=CC=C2
In short: as §1

[8] = compound: COc1cc(Nc2ncc3c(n2)-c2ccc(Cl)cc2C(c2c(F)cccc2OC)=NC3)ccc1C(=O)O [alisertib]
In short: as §1

[9] = compound: COc1cc2nc(-c3cc(F)ccc3O)nc(N[C@@H]3CNC[C@H]3C(C)(C)O)c2cc1OC
In short: as §1

[10] = compound: COc1cc2ncnc(Nc3ccc(F)c(Cl)c3)c2cc1OCCCN1CCOCC1 [gefitinib]
In short: as §1

[11] = compound: CS(=O)(=O)CCNCc1ccc(-c2ccc3ncnc(Nc4ccc(OCc5cccc(F)c5)c(Cl)c4)c3c2)o1 [lapatinib]
In short: as §1

[12] = compound: CS(=O)(=O)N1CCN(Cc2cc3nc(-c4cccc5[nH]ncc45)nc(N4CCOCC4)c3s2)CC1 [pictilisib]
In short: as §1

[13] = compound: C[C@@H](Oc1cc(-c2cnn(C3CCNCC3)c2)cnc1N)c1c(Cl)ccc(F)c1Cl [crizotinib]
In short: as §1

[14] = compound: C[C@H](C1=CC=C(C=C1)C(=O)NC2=C3C=CNC3=NC=C2)N
In short: as §1

[15] = compound: C[C@H](Nc1ncnc2nc[nH]c12)c1cc2cccc(Cl)c2c(=O)n1-c1ccccc1 [duvelisib]
In short: as §1

[16] = compound: Cc1cc(Nc2cc(CN3CCOCC3)c3nc(C)c(Cc4ccc(Cl)cc4F)n3n2)n[nH]1 [gandotinib]
In short: as §1

[17] = compound: Cc1cc(Nc2cc(N3CCN(C)CC3)nc(Sc3ccc(NC(=O)C4CC4)cc3)n2)n[nH]1 [tozasertib]
In short: as §1

[18] = compound: Cc1ccc(-n2nc(C(C)(C)C)cc2NC(=O)Nc2ccc(OCCN3CCOCC3)c3ccccc23)cc1 [doramapimod]
In short: as §1

[19] = compound: Cc1ccc(NC(=O)c2ccc(CN3CC[C@H](N(C)C)C3)c(C(F)(F)F)c2)cc1Nc1nccc(-c2cncnc2)n1 [bafetinib]
In short: as §1

[20] = compound: Cc1cccc(CC(=O)N2CCc3c2ccc(-c2cn(C)c4ncnc(N)c24)c3F)n1
In short: as §1

Measured: log2 fold change

DERL1 (UniProt Q9BUN8)
inactive: [1] 0.008 | [2] 0.009 | [3] -0.001 | [4] -0.017 | [5] 0.034 | [6] -0.017 | [7] -0.043 | [8] -0.061 | [9] -0.087 | [10] 0.045 | [11] 0.013 | [12] -0.067 | [13] -0.027 | [14] -0.122 | [15] -0.011 | [16] 0.046 | [17] 0.053 | [18] 0.002 | [19] 0.006 | [20] 0

DECR1 (UniProt Q16698)
inactive: [1] -0.017 | [2] 0.092 | [3] -0.039 | [4] 0.018 | [5] -0.005 | [6] -0.029 | [7] -0.025 | [8] 0.014 | [9] 0.014 | [10] -0.006 | [11] -0.004 | [12] -0.045 | [13] 0.003 | [14] -0.008 | [15] 0.027 | [16] 0.07 | [17] -0.015 | [18] 0.011 | [19] 0.006 | [20] 0.013

DCUN1D1 (UniProt Q96GG9)
inactive: [1] 0.008 | [2] -0.04 | [3] -0.021 | [4] -0.021 | [5] -0.074 | [6] -0.037 | [7] 0.039 | [8] 0.016 | [9] -0.015 | [10] -0.026 | [11] 0 | [12] -0.006 | [13] 0.023 | [14] 0.006 | [15] 0.009 | [16] -0.008 | [17] -0.035 | [18] -0.001 | [19] 0.026 | [20] -0.034

DCAF4L2 (UniProt Q8NA75)
inactive: [1] 0.001 | [2] 0.206 | [3] -0.045 | [4] 0.096 | [5] 0.266 | [6] 0.001 | [7] 0.046 | [8] -0.051 | [9] 0.072 | [10] 0.006 | [11] 0.123 | [12] -0.103 | [13] -0.008 | [14] 0.054 | [15] 0.149 | [16] -0.026 | [17] -0.015 | [18] 0.021 | [19] -0.014 | [20] -0.011

DDX42 (UniProt Q86XP3)
inactive: [1] 0.031 | [2] 0.001 | [3] 0.018 | [4] -0.021 | [5] 0.019 | [6] -0.005 | [7] 0.075 | [8] 0.019 | [9] 0.01 | [10] -0.04 | [11] 0.007 | [12] 0 | [13] -0.014 | [14] -0.006 | [15] -0.036 | [16] -0.041 | [17] 0.023 | [18] 0.036 | [19] -0.01 | [20] 0.005

DECR2 (UniProt Q9NUI1)
inactive: [1] 0.015 | [2] -0.024 | [3] -0.093 | [4] 0.052 | [5] 0.028 | [6] 0.059 | [7] -0.112 | [8] -0.028 | [9] 0.173 | [10] -0.062 | [11] -0.191 | [12] 0.009 | [13] -0.049 | [14] 0.063 | [15] 0.042 | [16] -0.061 | [17] 0.064 | [18] -0.032 | [19] -0.039 | [20] 0.013

DES (UniProt P17661)
inactive: [1] -0.144 | [2] 0.091 | [3] -0.023 | [4] -0.056 | [5] 0.26 | [6] 0 | [7] -0.029 | [8] -0.017 | [9] 0.117 | [10] 0.04 | [11] -0.079 | [12] -0.03 | [13] -0.082 | [14] -0.301 | [15] 0.098 | [16] 0.13 | [17] -0.014 | [18] 0.047 | [19] -0.051 | [20] 0.121

DBI isoform 5 (UniProt P07108)
inactive: [1] 0.184 | [2] 0.117 | [3] 0.017 | [4] 0.12 | [5] -0.055 | [6] 0.015 | [7] -0.076 | [8] 0.086 | [9] 0.005 | [10] -0.031 | [11] 0.158 | [12] 0.012 | [13] 0.022 | [14] 0.206 | [15] 0.076 | [16] -0.112 | [17] 0.021 | [18] -0.024 | [19] -0.027 | [20] -0.104
